Assay results: EP0233461B2, “4,5,6-Substituted-2-pyrimidinamines” (AMERICAN CYANAMID COMPANY, priority 1986, dated 1987)
At least one read-out could not be matched to a standard name with certainty.

Tested on: Obese mice [C57 BI/6J (ob/ob)] and diabetic mice [C57 BI/Ks (db/db)]
Assay: Hypoglycemic activity: plasma/blood glucose in obese (ob/ob) and diabetic (db/db) mice fed test compound in chow
Assay type: in vivo
Conditions: ob/ob mice, dose 0.1 % (W/W) in chow

Row | SMILES | Blood Glucose Levels in mg/100ml (day 0 (before first treatment)) [mg/100ml] | Blood Glucose Levels in mg/100ml (day 5) [mg/100ml]
1 | CN(C)c1ccc(Nc2nccc(-c3ccncc3)n2)cc1 [N[4-(Dimethylamino)phenyl] -4-(4-pyridinyl)-2-pyrimidinamine] [listing 1 of 2 here] | 240 | 138
2 | CN(C)c1ccc(Nc2nccc(-c3ccncc3)n2)cc1 [N[4-(Dimethylamino)phenyl] -4-(4-pyridinyl)-2-pyrimidinamine] [listing 2 of 2 here] | 230 | 147
